Test results taken from patent publication US5300432.

Tested on: Srf I restriction endonuclease (Streptomyces rf (ATCC 55215))
Assay: enzyme reaction in vitro
Details: purified native protein, protein details: FPLC purified from native strain, 55-64 kd

Row | Sequence | activity on this sequence (not digested, 37 C, 3 h) | also measured
1 | CAAGCCCGGGCTTG (double strand) [Srf I linker in pSMSrf I (pBluescript II SK+ EcoR V site)] |  | activity on this sequence (cleaved after third C, blunt ends, 37 C 15 min): active
2 | CAGCGCCATTATGAGCAAGGAAATTCCCACGCCCTACATGTGGAGTTACCAGCCACAAATGGGACTTGCGGCTGGAGCTGCCCAAGACTACTCAACCCGAATAAACTACATGAGCGCGGGACCCCACATGATATCCCGGGTCAACGGAATCCGCGCCCACCGAAACCGAATTCTCCTCGAACAGGCGGCTATTACCACCACACCTCGTAATAACCTTAATCCCCGTAGTTGGCCCGCTGCCCTGGTGTACCAGGAAAGTCCCGCTCCCACCACTGTGGTACTTCCCAGAGACGCCCAGGCCGAGGTTCAGATGACTAACTCAGGGGCGCAGCTTGCGGGCGGCTTTCGTCACAGGGTGCGGTCGCCCGGGCAGGGTATAACTCACCTGAAAATCAGAGGGCGAGGTATTCAGCTCAACGACGA (double strand) [Ad-2 PCR fragment C (nt 27205-27627)] |  | activity on this sequence (cleaved GCCC*GGGC to 366 and 56 bp, 1X Universal Buffer (Mg acetate, K acetate), 37 C, 3 h): active
3 | CTCACCTGAAAATCAGAGGGCGAGGTATTCAGCTCAACGACGAGTCGGTGAGCTCCTCTCTTGGTCTCCGTCCGGACGGGACATTTCAGATCGGCGGCGCTGGCCGCTCTTCATTTACGCCCCGTCAGGCGATCCTAACTCTG (double strand) [Ad-2 PCR fragment B (nt 27585-27727)] | not active | 
4 | GACGGGACATTTCAGATCGGCGGCGCTGGCCGCTCTTCATTTACGCCCCGTCAGGCGATCCTAACTCTGCAGACCTCGTCCTCGGAGCCGCGCTCCGGAGGCATTGGAACTCTACAATTTATTGAGGAGTTCGTGCCTTCGGTTTACTTCAACCCCTTTTCTGGACCTCCCGGCCACTACCCGGACCAGTTTATTCCCAACTTTGACGCGGTGAAAGACTCGGCGGACGGCTACGACTGAATGACCAGTGGAG (double strand) [Ad-2 PCR fragment A (nt 27659-27911)] | not active | 

The exact form of at least one protein or probe is not confirmed. Negatives hold for the conditions tested.
